# Experimental data: publication PMC13195094
# By UniProt entry, the sequences of proteins in these tests, tags left out. Where a name states a change or a piece, a line headed by the entry shows the natural chain unless it says otherwise. Chains listed by the source or under a name are the forms on record and can include a tag or linker. Residues count along the entry.
# UniProt P20700: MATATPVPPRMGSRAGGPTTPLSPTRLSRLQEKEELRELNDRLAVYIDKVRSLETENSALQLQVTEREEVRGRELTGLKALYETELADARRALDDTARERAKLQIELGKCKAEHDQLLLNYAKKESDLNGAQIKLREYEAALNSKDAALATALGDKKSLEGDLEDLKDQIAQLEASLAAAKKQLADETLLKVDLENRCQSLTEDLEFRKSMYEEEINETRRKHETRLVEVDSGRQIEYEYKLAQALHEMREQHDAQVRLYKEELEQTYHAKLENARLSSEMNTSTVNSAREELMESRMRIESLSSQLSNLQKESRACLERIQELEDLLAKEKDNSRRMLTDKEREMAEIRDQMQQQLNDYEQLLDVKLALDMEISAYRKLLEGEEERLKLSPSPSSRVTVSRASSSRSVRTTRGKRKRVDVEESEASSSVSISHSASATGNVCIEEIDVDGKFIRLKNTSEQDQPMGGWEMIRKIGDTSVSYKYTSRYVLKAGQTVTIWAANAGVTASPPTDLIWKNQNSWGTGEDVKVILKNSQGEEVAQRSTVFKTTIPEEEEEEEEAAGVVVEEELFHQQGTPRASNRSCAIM
# N-terminal GFP-tagged truncated Lamin B1 lacking the NLS (LMNB1_N409): residues 1-409 of P20700
# UniProt P63104: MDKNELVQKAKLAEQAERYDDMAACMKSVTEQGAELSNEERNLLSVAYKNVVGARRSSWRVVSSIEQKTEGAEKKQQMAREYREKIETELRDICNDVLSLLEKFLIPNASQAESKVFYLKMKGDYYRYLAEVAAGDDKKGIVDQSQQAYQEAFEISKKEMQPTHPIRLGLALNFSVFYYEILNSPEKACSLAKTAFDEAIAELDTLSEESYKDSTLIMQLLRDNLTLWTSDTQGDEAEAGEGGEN
# UniProt P62258: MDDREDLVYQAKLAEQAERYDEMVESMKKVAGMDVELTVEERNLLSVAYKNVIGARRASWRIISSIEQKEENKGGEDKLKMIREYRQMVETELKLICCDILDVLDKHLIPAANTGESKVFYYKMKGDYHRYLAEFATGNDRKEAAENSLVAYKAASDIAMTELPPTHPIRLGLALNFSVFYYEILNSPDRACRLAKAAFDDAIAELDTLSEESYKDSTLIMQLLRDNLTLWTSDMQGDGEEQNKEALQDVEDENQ
# No constants are given. Whether binding was seen depends on the method and setting. In cells and extracts the contact can be indirect. A yes stands for co-enrichment or nearness to the bait. Other partners may have been found. For part of these data: A no says only that the protein was not detected with the bait.
# B1: 14-3-3γ (protein, UniProt P61981 1-247)
# chain: MVDREQLVQKARLAEQAERYDDMAAAMKNVTELNEPLSNEERNLLSVAYKNVVGARRSSWRVISSIEQKTSADGNEKKIEMVRAYREKIEKELEAVCQDVLSLLDNYLIKNCSETQYESKVFYLKMKGDYYRYLAEVATGEKRATVVESSEKAYSEAHEISKEHMQPTHPIRLGLALNYSVFYYEIQNAPEQACHLAKTAFDDAIAELDTLNEDSYKDSTLIMQLLRDNLTLWTSDQQDDDGGEGNN
# B2: 14-3-3 η (protein, UniProt Q04917 1-246)
# chain: MGDREQLLQRARLAEQAERYDDMASAMKAVTELNEPLSNEDRNLLSVAYKNVVGARRSSWRVISSIEQKTMADGNEKKLEKVKAYREKIEKELETVCNDVLSLLDKFLIKNCNDFQYESKVFYLKMKGDYYRYLAEVASGEKKNSVVEASEAAYKEAFEISKEQMQPTHPIRLGLALNFSVFYYEIQNAPEQACLLAKQAFDDAIAELDTLNEDSYKDSTLIMQLLRDNLTLWTSDQQDEEAGEGN
# B3: MICAL1 (protein, UniProt Q8TDZ2 1-1067)
# chain: MASPTSTNPAHAHFESFLQAQLCQDVLSSFQELCGALGLEPGGGLPQYHKIKDQLNYWSAKSLWTKLDKRAGQPVYQQGRACTSTKCLVVGAGPCGLRVAVELALLGARVVLVEKRTKFSRHNVLHLWPFTIHDLRALGAKKFYGRFCTGTLDHISIRQLQLLLLKVALLLGVEIHWGVTFTGLQPPPRKGSGWRAQLQPNPPAQLANYEFDVLISAAGGKFVPEGFKVREMRGKLAIGITANFVNGRTVEETQVPEISGVARIYNQSFFQSLLKATGIDLENIVYYKDDTHYFVMTAKKQCLLRLGVLRQDWPDTNRLLGSANVVPEALQRFTRAAADFATHGKLGKLEFAQDAHGQPDVSAFDFTSMMRAESSARVQEKHGARLLLGLVGDCLVEPFWPLGTGVARGFLAAFDAAWMVKRWAEGAESLEVLAERESLYQLLSQTSPENMHRNVAQYGLDPATRYPNLNLRAVTPNQVRDLYDVLAKEPVQRNNDKTDTGMPATGSAGTQEELLRWCQEQTAGYPGVHVSDLSSSWADGLALCALVYRLQPGLLEPSELQGLGALEATAWALKVAENELGITPVVSAQAVVAGSDPLGLIAYLSHFHSAFKSMAHSPGPVSQASPGTSSAVLFLSKLQRTLQRSRAKENAEDAGGKKLRLEMEAETPSTEVPPDPEPGVPLTPPSQHQEAGAGDLCALCGEHLYVLERLCVNGHFFHRSCFRCHTCEATLWPGGYEQHPGDGHFYCLQHLPQTDHKAEGSDRGPESPELPTPSENSMPPGLSTPTASQEGAGPVPDPSQPTRRQIRLSSPERQRLSSLNLTPDPEMEPPPKPPRSCSALARHALESSFVGWGLPVQSPQALVAMEKEEKESPFSSEEEEEDVPLDSDVEQALQTFAKTSGTMNNYPTWRRTLLRRAKEEEMKRFCKAQTIQRRLNEIEAALRELEAEGVKLELALRRQSSSPEQQKKLWVGQLLQLVDKKNSLVAEEAELMITVQELNLEEKQWQLDQELRGYMNREENLKTAADRQAEDQVLRKLVDLVNQRDALIRFQEERRLSELALGTGAQG
# B4: 14-3-3τ (protein, UniProt P27348 1-245)
# chain: MEKTELIQKAKLAEQAERYDDMATCMKAVTEQGAELSNEERNLLSVAYKNVVGGRRSAWRVISSIEQKTDTSDKKLQLIKDYREKVESELRSICTTVLELLDKYLIANATNPESKVFYLKMKGDYFRYLAEVACGDDRKQTIDNSQGAYQEAFDISKKEMQPTHPIRLGLALNFSVFYYEILNNPELACTLAKTAFDEAIAELDTLNEDSYKDSTLIMQLLRDNLTLWTSDSAGEECDAAEGAEN
# Experiments:
# [1] = target: N-terminal GFP-tagged truncated Lamin B1 lacking the NLS (LMNB1_N409) (human) (UniProt P20700); assay: affinity purification with mass spectrometry; lysates of SH-SY5Y-derived neurons expressing GFP, GFP-LMNB1_FL or LMNB1_N409; anti-GFP nanobody agarose beads; same buffers; normalised by GFP peptides; one replicate, fold change alone
# [2] = target: N-terminal GFP-tagged truncated Lamin B1 lacking the NLS (LMNB1_N409) (human) (UniProt P20700); assay: affinity purification with mass spectrometry; whole cell extracts of hiPSC-MNs expressing GFP, GFP-LMNB1_FL or LMNB1_N409; anti-GFP nanobody agarose beads, at least 2 h at 4 °C; lysis in 50 mM Tris-HCl pH 7.4, 150 mM NaCl, 0.5 mM EDTA, 2% Triton X-100 with DNase I and RNase A; washes with 150 mM and 500 mM NaCl; specific binding: at least 5-fold over GFP control; three replicates
# [3] = target: N-terminal GFP-tagged full-length Lamin B1 (human) (UniProt P20700); assay: as above
# [4] = target: N-terminal GFP-tagged full-length Lamin B1 (human) (UniProt P20700); assay: affinity purification with mass spectrometry; lysates of SH-SY5Y-derived neurons expressing GFP, GFP-LMNB1_FL or LMNB1_N409; anti-GFP nanobody agarose beads; same buffers; normalised by GFP peptides; one replicate, fold change alone
Molecule,binding [1],binding [2],binding [3],binding [4]
14-3-3ζ (from UniProt P63104 1-245),binds,binds,–,–
karyopherin subunit alpha 6 (from UniProt O60684 1-536),–,binds,binds,–
14-3-3ε (from UniProt P62258 1-255),binds,–,–,–
B1,binds,binds,–,–
B2,binds,–,–,no binding
B3,binds,–,–,no binding
B4,binds,–,–,–
